# Test results published in paper PMC9730630.
# Chains of the proteins cited; added tags and fusions are not shown.
# UniProt P19838: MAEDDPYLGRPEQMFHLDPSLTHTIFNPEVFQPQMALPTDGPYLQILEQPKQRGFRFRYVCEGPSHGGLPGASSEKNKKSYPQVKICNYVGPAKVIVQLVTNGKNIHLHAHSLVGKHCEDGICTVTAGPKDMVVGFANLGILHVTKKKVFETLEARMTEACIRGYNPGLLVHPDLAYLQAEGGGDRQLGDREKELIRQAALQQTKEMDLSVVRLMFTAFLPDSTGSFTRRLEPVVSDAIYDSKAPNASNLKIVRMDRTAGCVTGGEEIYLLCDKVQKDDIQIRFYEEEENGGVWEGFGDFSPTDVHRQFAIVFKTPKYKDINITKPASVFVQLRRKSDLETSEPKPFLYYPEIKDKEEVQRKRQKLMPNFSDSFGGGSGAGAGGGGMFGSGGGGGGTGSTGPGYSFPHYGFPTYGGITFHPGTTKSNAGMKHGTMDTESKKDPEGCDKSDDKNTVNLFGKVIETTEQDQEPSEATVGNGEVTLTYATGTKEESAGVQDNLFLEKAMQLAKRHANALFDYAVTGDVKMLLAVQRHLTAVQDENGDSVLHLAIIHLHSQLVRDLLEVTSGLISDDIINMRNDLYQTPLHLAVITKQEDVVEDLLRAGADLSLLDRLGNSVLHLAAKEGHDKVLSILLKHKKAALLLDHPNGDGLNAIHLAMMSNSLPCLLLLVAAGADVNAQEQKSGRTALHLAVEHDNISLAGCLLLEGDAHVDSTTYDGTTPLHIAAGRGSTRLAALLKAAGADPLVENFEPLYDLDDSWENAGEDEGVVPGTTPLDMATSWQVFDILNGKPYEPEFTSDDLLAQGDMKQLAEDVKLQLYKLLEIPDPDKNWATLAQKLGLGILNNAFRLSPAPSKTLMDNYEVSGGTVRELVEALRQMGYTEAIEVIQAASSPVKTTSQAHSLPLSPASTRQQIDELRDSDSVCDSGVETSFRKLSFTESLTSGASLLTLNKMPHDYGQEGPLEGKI
# Substitutions are numbered along the chain they refer to. Names may count otherwise. Results are given in words; binding and its absence hold for the method and conditions named. Binding seen in cells or lysates may run through a third protein. Some results given as binding are weak or reduced against the parent protein; the word gives no strength. Sequences can lack the tags named with a protein.
# T1: Myc-tagged edited KPC1 (p.M8V, A22G RNA editing) (human) (UniProt Q5XPI4)
# T1 sequence: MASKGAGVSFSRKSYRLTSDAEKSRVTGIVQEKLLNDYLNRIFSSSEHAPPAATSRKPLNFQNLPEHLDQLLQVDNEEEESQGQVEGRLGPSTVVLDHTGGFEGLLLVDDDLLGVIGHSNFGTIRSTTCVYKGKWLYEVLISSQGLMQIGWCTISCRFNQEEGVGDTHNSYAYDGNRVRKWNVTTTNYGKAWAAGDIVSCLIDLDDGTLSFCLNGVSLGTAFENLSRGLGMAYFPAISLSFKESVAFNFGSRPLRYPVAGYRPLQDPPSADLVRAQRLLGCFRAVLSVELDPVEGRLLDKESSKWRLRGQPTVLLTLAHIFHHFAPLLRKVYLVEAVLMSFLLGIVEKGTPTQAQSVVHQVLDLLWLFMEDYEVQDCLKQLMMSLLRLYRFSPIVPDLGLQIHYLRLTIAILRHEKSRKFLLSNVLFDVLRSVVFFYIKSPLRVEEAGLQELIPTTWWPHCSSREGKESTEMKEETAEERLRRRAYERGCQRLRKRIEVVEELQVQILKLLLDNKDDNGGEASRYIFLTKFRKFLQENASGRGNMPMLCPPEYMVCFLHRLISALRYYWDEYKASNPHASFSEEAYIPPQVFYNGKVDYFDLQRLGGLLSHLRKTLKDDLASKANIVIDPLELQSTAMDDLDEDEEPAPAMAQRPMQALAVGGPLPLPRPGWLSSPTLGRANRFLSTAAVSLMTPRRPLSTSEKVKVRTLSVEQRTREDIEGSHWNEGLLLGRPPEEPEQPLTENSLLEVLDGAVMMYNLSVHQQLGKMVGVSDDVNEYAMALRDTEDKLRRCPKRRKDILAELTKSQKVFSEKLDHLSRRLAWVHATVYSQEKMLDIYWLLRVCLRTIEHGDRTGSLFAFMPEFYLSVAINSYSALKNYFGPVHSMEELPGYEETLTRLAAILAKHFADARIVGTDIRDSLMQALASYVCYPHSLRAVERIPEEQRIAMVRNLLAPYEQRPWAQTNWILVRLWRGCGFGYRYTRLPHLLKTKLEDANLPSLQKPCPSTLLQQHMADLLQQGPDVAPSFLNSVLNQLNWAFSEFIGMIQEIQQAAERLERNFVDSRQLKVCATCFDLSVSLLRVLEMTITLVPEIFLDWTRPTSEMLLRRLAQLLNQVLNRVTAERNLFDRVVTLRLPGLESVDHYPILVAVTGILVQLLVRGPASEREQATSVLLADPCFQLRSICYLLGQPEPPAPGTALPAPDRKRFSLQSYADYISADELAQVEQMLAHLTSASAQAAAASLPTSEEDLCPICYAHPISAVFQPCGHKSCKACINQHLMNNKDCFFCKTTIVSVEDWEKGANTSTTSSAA
# T2: Myc-tagged wild-type KPC1 (Kip1 ubiquitination-promoting complex 1) (human) (UniProt Q5XPI4)
# T2 sequence: T1 sequence with V8M
# B1: Myc-tagged wild-type KPC1 (Kip1 ubiquitination-promoting complex 1) (enzyme, UniProt Q5XPI4-1 1-1314)
# chain: T1 sequence with V8M
# B2: Myc-tagged edited KPC1 (p.M8V, A22G RNA editing) (enzyme, UniProt Q5XPI4-1 1-1314)
# chain: T1 sequence
# Experiments:
# [1] = target: T1, Myc-tagged edited KPC1 (p.M8V, A22G RNA editing) (human); assay: co-IP; QBC939 and RBE cells co-transfected with Myc-KPC1-WT or Myc-KPC1-EDT and Flag-p105; lysates in HEPES buffer (20 mM HEPES pH 7.2, 50 mM NaCl, 0.5% Triton X-100); Myc-KPC1-WT or Myc-KPC1-EDT as bait, precipitated with anti-Myc and protein A/G-agarose at 4 °C; blot with anti-Flag
# [2] = target: T2, Myc-tagged wild-type KPC1 (Kip1 ubiquitination-promoting complex 1) (human); assay: as above
# [3] = target: Flag-tagged NF-κB1 p105 (UniProt P19838); assay: co-IP; QBC939 and RBE cells co-transfected with Myc-KPC1-WT or Myc-KPC1-EDT and Flag-p105; lysates in HEPES buffer (20 mM HEPES pH 7.2, 50 mM NaCl, 0.5% Triton X-100); Flag-p105 as bait, precipitated with anti-Flag and protein A/G-agarose at 4 °C; blot with anti-Myc
Molecule,binding [1],binding [2],binding [3]
Flag-tagged NF-κB1 p105 (from UniProt P19838 1-968),binds,binds,
B1,,,binds
B2,,,binds
